Measurements taken from the supplement of paper PMC10849652.
Some of the results follow.

Sequences of proteins named here, by UniProt entry; tags and fusion partners are left off. A change or cut given only in a name is not applied to a line headed by its entry.
UniProt Q96BS2: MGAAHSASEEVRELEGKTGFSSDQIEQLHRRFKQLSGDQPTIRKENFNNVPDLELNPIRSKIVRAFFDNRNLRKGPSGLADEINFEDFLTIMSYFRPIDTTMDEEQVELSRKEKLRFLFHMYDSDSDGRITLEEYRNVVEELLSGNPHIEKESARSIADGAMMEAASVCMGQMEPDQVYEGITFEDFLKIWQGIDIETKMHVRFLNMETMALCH
UniProt Q8IWB9: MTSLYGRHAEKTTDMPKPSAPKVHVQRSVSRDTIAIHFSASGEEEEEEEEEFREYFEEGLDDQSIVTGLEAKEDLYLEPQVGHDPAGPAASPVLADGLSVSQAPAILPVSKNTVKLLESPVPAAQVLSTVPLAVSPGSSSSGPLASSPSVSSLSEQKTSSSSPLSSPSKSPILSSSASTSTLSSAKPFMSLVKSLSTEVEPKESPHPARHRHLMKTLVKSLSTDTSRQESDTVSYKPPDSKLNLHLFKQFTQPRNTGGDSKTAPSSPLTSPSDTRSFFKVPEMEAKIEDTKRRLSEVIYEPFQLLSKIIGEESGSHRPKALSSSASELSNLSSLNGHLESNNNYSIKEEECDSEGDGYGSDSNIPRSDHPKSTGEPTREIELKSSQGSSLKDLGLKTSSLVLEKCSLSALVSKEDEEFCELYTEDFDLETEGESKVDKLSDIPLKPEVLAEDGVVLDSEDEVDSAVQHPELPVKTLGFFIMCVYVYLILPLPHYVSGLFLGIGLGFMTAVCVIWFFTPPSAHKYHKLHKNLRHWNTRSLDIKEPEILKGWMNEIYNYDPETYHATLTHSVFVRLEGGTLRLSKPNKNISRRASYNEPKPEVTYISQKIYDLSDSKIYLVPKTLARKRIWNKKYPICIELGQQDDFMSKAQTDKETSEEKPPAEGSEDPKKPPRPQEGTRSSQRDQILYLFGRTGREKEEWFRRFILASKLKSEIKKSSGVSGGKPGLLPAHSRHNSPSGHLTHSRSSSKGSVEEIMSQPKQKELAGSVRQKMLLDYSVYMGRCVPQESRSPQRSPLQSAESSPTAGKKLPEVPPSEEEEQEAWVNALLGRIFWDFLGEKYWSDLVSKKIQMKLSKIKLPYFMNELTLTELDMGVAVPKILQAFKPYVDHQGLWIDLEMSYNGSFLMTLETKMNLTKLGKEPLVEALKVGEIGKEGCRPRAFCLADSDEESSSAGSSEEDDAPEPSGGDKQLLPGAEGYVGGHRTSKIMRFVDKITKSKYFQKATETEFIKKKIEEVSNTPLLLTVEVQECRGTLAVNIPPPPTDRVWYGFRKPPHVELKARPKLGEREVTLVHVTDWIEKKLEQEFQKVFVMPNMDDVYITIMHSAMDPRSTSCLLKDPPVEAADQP
UniProt P01033: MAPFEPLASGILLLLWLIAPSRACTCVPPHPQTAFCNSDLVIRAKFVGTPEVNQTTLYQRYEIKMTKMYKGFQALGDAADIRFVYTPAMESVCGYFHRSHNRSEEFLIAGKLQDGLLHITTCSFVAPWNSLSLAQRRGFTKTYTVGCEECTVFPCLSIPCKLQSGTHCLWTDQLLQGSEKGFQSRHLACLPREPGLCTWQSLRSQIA
UniProt Q9BZK7: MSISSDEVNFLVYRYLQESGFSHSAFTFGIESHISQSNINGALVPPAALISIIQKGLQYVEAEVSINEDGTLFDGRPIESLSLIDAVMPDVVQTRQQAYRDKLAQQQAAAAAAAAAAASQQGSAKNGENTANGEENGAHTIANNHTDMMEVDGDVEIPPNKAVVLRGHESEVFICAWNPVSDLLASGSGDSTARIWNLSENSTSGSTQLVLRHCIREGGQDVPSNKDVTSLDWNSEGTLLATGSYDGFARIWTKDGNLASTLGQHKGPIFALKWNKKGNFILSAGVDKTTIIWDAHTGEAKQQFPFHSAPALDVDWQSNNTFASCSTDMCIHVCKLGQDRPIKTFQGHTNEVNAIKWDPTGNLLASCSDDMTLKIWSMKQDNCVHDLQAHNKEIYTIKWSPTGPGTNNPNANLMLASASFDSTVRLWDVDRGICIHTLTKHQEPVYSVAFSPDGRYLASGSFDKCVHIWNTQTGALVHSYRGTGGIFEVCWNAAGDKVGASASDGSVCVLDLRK
UniProt Q15582: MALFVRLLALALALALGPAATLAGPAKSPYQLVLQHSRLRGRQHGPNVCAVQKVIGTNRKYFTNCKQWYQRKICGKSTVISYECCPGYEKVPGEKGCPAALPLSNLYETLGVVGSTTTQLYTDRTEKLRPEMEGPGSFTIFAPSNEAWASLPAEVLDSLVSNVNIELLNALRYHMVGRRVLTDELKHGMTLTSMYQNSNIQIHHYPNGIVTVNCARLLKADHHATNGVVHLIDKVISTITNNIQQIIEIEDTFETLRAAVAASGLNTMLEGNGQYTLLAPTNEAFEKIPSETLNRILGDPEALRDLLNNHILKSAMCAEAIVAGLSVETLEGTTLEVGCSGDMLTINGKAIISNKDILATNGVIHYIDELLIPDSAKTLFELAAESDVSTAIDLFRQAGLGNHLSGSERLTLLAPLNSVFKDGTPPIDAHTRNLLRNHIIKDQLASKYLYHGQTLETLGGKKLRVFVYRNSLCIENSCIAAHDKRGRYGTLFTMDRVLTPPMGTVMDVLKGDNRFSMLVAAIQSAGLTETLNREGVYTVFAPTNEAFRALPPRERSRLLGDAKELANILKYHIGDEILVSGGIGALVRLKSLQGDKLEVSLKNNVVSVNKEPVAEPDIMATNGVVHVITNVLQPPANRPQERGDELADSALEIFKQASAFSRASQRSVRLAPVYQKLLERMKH
UniProt Q9UP52: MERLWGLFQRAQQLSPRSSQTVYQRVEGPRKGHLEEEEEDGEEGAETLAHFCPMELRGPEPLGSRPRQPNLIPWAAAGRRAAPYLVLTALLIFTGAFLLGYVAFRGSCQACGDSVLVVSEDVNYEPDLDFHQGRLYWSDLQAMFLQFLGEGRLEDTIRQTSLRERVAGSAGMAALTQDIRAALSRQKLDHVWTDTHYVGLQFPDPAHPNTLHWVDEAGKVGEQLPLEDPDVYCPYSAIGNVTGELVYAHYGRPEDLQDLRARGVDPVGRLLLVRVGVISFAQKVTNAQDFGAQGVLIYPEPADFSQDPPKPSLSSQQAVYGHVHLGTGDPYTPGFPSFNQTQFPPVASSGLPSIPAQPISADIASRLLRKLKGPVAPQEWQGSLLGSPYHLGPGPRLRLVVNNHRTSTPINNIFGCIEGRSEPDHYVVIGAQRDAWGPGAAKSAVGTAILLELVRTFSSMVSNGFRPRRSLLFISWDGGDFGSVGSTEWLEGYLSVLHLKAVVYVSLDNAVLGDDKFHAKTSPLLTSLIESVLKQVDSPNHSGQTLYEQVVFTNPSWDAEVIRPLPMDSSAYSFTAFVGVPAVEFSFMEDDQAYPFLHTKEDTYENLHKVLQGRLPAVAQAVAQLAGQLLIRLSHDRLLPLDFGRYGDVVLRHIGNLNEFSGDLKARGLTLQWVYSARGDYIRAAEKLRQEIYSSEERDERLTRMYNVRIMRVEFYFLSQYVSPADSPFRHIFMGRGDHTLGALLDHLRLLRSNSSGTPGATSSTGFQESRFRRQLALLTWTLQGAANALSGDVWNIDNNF
UniProt Q9HA65: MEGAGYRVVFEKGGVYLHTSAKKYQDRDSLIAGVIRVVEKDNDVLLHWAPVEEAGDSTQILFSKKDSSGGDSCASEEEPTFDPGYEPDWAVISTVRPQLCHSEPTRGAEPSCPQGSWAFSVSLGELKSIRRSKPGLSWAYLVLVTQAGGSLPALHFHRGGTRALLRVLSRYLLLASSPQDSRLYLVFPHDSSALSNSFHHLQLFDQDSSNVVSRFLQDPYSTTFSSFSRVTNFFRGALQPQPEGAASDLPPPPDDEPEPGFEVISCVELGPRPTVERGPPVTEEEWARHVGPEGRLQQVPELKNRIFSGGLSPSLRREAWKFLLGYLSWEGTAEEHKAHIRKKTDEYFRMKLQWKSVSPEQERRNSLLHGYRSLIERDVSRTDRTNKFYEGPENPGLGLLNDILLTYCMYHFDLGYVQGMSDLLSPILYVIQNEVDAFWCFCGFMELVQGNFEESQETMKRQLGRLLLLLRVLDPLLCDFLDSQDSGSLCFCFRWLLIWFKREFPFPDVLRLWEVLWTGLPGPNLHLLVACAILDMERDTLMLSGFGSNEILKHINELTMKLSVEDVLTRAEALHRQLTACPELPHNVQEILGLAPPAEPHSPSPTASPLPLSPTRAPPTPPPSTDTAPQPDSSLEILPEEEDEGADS
UniProt P01137, whole entry, looked up: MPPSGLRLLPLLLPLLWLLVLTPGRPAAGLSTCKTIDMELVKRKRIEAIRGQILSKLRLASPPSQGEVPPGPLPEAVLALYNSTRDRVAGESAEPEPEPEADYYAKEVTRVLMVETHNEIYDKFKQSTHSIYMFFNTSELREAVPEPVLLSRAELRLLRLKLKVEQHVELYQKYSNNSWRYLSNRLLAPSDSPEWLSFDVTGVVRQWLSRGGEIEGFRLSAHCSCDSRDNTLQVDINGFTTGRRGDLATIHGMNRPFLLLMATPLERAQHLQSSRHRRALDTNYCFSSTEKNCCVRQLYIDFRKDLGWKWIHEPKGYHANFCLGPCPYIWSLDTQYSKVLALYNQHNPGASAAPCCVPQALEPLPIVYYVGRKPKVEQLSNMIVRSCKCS
UniProt Q9NXG2: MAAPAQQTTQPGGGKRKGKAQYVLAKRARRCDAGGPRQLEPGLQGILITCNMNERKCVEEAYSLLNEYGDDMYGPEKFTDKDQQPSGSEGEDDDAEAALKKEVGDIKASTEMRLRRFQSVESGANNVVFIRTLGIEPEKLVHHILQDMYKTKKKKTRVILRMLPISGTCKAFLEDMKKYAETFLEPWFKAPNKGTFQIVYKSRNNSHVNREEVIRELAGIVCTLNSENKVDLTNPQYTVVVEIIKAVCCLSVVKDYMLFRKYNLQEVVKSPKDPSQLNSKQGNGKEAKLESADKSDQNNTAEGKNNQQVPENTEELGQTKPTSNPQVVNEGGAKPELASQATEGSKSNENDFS
UniProt Q96RS0: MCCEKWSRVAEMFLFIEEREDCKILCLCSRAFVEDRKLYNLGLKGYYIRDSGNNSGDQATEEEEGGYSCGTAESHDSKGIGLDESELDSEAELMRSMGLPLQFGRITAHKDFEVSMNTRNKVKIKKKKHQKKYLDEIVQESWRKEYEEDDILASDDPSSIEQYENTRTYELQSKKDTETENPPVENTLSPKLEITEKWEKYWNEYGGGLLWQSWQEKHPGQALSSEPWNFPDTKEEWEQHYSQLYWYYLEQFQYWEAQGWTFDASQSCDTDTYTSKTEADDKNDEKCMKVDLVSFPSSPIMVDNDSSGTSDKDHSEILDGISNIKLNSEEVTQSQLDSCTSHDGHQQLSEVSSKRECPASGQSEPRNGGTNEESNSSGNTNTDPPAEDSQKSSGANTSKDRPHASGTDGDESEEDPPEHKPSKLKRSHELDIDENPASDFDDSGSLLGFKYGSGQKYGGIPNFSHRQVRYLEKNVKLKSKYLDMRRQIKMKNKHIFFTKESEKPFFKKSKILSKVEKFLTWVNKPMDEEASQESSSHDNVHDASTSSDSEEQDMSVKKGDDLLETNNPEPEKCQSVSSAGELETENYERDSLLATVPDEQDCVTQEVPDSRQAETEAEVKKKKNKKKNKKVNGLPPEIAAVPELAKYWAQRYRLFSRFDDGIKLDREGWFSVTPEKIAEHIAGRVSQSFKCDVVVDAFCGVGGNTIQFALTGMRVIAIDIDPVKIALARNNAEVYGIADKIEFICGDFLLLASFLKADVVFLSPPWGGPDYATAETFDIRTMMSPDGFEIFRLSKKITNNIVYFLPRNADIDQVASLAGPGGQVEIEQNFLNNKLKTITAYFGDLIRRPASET
UniProt Q9Y5L4: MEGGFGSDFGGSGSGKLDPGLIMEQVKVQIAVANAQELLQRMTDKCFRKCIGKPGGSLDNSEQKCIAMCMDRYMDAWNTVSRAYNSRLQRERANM
UniProt Q99081: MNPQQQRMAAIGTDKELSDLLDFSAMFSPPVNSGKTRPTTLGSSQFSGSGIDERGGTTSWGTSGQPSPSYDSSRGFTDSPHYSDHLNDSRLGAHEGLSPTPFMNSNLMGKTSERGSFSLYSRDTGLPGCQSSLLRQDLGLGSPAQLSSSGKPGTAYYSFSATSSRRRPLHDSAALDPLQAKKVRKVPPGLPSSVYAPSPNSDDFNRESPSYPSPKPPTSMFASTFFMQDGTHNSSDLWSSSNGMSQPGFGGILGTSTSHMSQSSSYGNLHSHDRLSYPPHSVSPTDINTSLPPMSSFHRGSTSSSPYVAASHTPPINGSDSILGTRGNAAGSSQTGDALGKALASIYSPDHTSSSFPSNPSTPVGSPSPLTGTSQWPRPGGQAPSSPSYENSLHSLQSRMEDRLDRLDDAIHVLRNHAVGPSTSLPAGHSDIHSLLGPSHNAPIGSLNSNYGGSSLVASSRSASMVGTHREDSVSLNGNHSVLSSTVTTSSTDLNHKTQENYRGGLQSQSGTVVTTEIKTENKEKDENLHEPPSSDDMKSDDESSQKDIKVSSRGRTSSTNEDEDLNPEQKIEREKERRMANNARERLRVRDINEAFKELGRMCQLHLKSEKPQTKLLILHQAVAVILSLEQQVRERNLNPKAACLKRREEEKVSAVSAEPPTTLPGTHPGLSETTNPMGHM

compound: NC(=O)Nc1cc(-c2cccc(F)c2)sc1C(=O)N[C@H]1CCCNC1; experiment: log2 fold change, soluble protein after heating vs DMSO (PISA); higher = thermal stabilisation; K562 cells, 10 uM, 30 min; active = over 0.2 and 3.5 SD of the protein, either way, in both replicates (recomputed)
In short: (§1)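 Aliquots of K562 cells (2×10^6 cells/mL) treated with 10 μM compound for 30 min were heated for 3 min over 48°C-58°C. After pooling and extraction in PBS with 0.5% NP-40 at 4°C, soluble protein from a 21,000xg, 90 min spin was quantified by TMTpro 16plex LC-MS/MS with channel sums equalised. Thermal stability is expressed against control samples, from duplicates, as a log2 fold change.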

log2 fold change, inactive:
THOC6 (UniProt Q86W42) -0.02
TLCD1 (UniProt Q96CP7) -0.005
TBC1D24 (UniProt Q9ULP9) 0.047
TESC (UniProt Q96BS2) -0.059
TBC1D4 (UniProt O60343) -0.032
TEX2 isoform 2 (UniProt Q8IWB9) -0.091
TIMP1 (UniProt P01033) -0.104
TBC1D2B (UniProt Q9UPU7) -0.002
TGDS (UniProt O95455) -0.085
TIMM17B (UniProt O60830) -0.008
TIMM9 (UniProt Q9Y5J7) 0.136
TBL1XR1 (UniProt Q9BZK7) 0.06
TGFBI (UniProt Q15582) -0.037
TFR2 (UniProt Q9UP52) -0.039
TBC1D17 (UniProt Q9HA65) -0.032
THOC3 (UniProt Q96J01) 0.011

compound: NC(=O)c1cnc(N[C@@H]2CCCC[C@@H]2N)nc1Nc1cccc(-n2nccn2)c1; experiment: as above
In short: as §1

log2 fold change, inactive:
TBC1D14 (UniProt Q9P2M4) -0.033
TLCD3A (UniProt Q8TBR7) -0.044
TGOLN2 isoform 7 (UniProt O43493) 0.005
TIMMDC1 (UniProt Q9NPL8) 0.013
THOC2 (UniProt Q8NI27) 0.018
THYN1 (UniProt Q9P016) -0.011
THRAP3 (UniProt Q9Y2W1) -0.076
TK1 (UniProt K7ERV3) -0.054
THBS1 (UniProt P07996) 0.004
TIMM22 (UniProt Q9Y584) 0.271
TIMM10B (UniProt Q9Y5J6) 0.257
TBK1 (UniProt Q9UHD2) 0
TKT, A0A0B4J1R6 -0.31
TGFB1 (UniProt P01137) -0.007
THUMPD1 (UniProt Q9NXG2) -0.024
TGS1 (UniProt Q96RS0) -0.039
TIMM13 (UniProt Q9Y5L4) 0.031
TCF12 isoform 3 (UniProt Q99081) 0.102
THOC6 (UniProt Q86W42) -0.021
TLCD1 (UniProt Q96CP7) -0.088
TBC1D24 (UniProt Q9ULP9) -0.038
TESC (UniProt Q96BS2) -0.073
TBC1D4 (UniProt O60343) -0.068
TEX2 isoform 2 (UniProt Q8IWB9) 0.155
TIMP1 (UniProt P01033) 0.009
TGDS (UniProt O95455) -0.063
TIMM17B (UniProt O60830) 0.114
TIMM9 (UniProt Q9Y5J7) 0.023
TBL1XR1 (UniProt Q9BZK7) 0.057
TGFBI (UniProt Q15582) -0.136
TFR2 (UniProt Q9UP52) -0.004
TBC1D17 (UniProt Q9HA65) -0.075
THOC3 (UniProt Q96J01) 0.034
